Consider one compound from PMC4467128 (Oncotarget, 2014).

By IC50 is commonly meant the concentration at which inhibition is half-maximal.

The test system of test [1] is Ramos cells. The test is described as follows: MTT cell viability assay, Ramos B-cell lymphoma cells. It is filed as cell-based. The note with it: Homo sapiens, 24 h, mean ± SEM, read-out: IC50 (growth inhibition). Here is the method: (§1) Two fast-growing malignant B cell lymphoma (Burkitt lymphoma) cell lines and human umbilical vein endothelial cells (HUVEC) were used. Ramos and HUVEC cells were purchased from American Type Culture Collection (Manassas, VA, USA) and BJAB cells were a kind gift from Professor Ping-Ning Hsu (National Taiwan University Hospital and National Taiwan University, College of Medicine, Taipei, Taiwan). Ramos and BJAB cells were cultured in RPMI-1640 with 10% heat-inactivated fetal bovine serum and penicillin (100 units/ml)/streptomycin (100 μg/ml) while HUVEC was cultured in M199 with 20% heat-inactivated fetal bovine serum (v/v) and penicillin (100 units/mL)/streptomycin (100 μg/mL). All cells were maintained in humidified air containing 5% CO2 at 37°C. Cell density was maintained between 1×10^5 and 1×10^6 cell/ml and passaged every 2 to 3 days.
(§2) Cell viability was assessed by MTT assay. […] After the treatment, 100 μl of 0.5 mg/ml 3-(4,5-Dimethylthiazol-2-yl)-2,5-diphenyl-tetrazolium bromide (MTT) were added to each well and incubated at 37°C to stained cells forming an insoluble blue formazan product. After 1 h incubation, 100 μl of extraction reagent (0.1M sodium acetate buffer or DMSO) were added to each well and mix thoroughly to lyse cells. The plates were then measured at 550 nm using an enzyme-linked immunosorbent assay (ELISA) reader (Packard, Meriden, CT, USA).
A general note: Formazan colour is commonly taken as a measure of viable cells.

Test [2] relates to BJAB cells. Description: MTT cell viability assay, BJAB B-cell lymphoma cells. The conditions noted are these: Homo sapiens, 24 h, mean ± SEM, read-out: IC50 (growth inhibition). It counts as cell-based. Here is the method: as §1, §2

On to `O=C(CCCCCCC(=O)Nc1ccccc1)NO` [SAHA, reference compound], for which the IC50 in test [1] amounted to 2.61 ± 0.4 µM; in test [2] it was 44.2 ± 10 µM.
